32 targets from the supplement of paper PMC10849652 can be followed below.

Protein sequences, listed by entry. Tags and fused reporters are not part of them. Lines headed by an entry give the natural chain unless they say otherwise; changes in a name come on top.
UniProt Q86UP2: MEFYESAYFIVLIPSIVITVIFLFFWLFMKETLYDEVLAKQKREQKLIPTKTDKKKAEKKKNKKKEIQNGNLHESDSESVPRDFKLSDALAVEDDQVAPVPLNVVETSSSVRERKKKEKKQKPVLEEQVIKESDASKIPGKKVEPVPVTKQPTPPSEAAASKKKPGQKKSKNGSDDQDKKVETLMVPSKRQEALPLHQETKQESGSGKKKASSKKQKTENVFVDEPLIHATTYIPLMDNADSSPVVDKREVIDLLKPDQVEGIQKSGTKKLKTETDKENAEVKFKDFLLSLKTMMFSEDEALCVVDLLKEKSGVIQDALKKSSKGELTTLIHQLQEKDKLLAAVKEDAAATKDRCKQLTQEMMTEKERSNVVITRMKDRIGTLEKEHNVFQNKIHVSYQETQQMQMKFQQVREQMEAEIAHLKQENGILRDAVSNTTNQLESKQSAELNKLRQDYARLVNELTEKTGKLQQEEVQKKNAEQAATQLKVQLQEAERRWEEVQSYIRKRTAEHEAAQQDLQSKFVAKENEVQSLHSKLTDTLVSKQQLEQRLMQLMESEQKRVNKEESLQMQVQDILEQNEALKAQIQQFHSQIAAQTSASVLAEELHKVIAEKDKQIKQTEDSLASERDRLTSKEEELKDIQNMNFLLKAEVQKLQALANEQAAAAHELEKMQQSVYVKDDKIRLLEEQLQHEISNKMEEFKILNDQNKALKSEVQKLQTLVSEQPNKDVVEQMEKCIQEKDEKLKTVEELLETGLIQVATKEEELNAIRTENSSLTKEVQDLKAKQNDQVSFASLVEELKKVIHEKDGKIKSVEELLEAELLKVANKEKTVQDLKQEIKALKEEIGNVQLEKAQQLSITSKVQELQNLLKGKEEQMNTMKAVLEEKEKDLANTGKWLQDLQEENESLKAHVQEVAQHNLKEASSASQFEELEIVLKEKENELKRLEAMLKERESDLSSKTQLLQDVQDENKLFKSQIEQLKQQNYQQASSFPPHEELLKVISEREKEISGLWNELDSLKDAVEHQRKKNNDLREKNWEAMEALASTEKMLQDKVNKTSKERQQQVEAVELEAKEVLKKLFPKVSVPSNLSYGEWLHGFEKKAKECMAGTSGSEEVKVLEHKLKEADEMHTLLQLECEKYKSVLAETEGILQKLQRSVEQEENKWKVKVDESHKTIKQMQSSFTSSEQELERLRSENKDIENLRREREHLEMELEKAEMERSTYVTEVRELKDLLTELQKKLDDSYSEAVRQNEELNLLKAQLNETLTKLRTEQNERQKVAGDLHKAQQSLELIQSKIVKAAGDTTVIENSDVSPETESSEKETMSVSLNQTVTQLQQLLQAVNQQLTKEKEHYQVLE
UniProt Q6YP21: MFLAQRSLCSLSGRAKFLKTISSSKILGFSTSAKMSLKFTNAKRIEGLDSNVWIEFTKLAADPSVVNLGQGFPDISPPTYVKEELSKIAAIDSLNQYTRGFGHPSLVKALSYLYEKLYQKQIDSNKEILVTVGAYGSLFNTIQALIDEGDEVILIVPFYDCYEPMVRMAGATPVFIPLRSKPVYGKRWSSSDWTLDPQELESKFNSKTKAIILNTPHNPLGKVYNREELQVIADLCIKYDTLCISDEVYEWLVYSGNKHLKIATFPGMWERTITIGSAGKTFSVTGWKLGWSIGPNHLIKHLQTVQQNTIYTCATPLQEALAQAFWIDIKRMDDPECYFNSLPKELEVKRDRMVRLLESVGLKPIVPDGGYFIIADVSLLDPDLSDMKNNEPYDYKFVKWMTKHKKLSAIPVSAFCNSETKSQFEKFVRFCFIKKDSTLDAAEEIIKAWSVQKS
UniProt Q14847: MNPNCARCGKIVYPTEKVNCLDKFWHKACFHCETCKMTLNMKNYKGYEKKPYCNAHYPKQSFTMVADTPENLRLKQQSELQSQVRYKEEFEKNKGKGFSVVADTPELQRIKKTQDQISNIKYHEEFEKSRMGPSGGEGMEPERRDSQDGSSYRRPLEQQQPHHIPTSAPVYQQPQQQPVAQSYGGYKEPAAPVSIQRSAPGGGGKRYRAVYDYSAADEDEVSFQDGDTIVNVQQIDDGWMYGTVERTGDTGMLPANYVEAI
UniProt Q9BRT6: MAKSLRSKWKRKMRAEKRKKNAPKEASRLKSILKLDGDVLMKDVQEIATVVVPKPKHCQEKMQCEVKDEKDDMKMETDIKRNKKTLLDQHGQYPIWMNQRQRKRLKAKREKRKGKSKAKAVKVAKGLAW
UniProt Q9P2J5: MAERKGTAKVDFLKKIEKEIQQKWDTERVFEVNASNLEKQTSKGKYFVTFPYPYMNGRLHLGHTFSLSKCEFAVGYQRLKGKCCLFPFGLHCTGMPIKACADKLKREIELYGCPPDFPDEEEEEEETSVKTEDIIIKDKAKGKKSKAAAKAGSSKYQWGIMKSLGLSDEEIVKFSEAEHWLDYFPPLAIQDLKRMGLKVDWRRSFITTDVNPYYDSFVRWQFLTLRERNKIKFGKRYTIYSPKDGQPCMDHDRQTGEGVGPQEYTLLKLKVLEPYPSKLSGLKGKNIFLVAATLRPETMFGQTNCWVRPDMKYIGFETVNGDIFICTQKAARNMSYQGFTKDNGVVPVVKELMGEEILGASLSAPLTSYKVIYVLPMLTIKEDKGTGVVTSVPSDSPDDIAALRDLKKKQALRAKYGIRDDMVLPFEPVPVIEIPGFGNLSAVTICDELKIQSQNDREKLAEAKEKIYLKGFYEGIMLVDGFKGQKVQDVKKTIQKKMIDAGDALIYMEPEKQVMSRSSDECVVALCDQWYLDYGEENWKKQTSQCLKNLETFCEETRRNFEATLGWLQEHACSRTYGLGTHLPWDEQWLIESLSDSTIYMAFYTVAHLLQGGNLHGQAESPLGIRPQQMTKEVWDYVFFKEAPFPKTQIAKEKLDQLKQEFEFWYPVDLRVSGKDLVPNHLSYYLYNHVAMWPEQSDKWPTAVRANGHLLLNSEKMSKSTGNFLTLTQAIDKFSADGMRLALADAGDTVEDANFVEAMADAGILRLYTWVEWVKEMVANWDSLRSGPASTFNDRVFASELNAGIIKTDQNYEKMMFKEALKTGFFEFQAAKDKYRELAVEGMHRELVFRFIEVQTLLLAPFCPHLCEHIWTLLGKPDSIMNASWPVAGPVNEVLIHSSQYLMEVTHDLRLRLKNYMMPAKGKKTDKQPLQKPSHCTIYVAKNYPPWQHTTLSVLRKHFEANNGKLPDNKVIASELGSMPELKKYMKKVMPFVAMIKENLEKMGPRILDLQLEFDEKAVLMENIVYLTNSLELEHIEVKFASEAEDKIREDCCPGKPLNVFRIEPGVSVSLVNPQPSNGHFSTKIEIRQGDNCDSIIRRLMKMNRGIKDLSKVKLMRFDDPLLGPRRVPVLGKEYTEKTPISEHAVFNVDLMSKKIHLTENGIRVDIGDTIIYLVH
UniProt Q96AG4: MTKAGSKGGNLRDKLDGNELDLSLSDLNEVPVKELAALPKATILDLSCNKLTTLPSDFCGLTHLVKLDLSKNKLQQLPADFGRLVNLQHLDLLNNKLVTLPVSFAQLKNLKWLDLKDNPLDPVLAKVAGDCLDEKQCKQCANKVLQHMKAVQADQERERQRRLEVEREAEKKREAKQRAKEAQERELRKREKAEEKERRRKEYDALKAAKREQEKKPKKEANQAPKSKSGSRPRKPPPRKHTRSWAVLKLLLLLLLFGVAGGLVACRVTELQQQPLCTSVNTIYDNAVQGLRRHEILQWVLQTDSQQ
UniProt Q8N9N7: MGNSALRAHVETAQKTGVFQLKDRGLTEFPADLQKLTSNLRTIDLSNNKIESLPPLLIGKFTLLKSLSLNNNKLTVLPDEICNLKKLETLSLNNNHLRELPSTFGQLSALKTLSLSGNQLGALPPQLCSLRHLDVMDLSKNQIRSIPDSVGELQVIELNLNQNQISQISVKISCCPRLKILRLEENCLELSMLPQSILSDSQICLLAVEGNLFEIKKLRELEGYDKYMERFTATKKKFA
UniProt Q9NS86: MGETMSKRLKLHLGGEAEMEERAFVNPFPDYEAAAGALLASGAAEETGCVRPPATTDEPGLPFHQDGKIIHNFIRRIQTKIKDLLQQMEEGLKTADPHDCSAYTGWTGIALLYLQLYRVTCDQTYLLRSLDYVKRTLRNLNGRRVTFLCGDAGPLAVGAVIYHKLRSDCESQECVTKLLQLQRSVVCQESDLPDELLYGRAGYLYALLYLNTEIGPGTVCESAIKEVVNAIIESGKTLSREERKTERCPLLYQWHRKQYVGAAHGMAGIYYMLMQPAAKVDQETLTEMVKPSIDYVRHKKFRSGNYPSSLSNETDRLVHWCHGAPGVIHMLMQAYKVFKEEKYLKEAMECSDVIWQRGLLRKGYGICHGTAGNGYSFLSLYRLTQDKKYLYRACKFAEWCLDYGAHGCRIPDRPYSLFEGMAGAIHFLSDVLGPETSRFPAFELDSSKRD
UniProt Q03252: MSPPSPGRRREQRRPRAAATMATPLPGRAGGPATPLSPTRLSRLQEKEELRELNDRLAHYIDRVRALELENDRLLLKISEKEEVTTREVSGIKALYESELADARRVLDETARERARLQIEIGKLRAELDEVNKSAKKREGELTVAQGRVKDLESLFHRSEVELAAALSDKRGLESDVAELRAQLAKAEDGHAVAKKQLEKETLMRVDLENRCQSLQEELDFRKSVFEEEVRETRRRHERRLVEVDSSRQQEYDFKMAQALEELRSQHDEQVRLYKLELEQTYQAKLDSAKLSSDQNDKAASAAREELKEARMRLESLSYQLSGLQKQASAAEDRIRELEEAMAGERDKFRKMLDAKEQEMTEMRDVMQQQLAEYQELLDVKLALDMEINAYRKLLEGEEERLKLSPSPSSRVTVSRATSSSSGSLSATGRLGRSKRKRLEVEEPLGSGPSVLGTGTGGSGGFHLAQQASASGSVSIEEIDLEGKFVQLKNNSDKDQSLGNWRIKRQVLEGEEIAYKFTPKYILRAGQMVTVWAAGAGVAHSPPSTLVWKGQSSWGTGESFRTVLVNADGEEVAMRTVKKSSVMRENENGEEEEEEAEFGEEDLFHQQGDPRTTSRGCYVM
UniProt P30533, whole entry, looked up: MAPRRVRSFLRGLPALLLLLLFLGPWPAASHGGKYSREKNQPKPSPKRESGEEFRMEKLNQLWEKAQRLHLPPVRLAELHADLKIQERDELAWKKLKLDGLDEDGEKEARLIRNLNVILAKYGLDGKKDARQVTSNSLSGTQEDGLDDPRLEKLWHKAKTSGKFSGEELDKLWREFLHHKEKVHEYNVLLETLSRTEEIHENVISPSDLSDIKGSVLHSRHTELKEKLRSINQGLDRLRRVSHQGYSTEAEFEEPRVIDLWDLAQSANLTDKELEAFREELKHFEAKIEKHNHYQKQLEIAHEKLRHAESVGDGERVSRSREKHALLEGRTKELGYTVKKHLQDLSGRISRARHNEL
UniProt O60294: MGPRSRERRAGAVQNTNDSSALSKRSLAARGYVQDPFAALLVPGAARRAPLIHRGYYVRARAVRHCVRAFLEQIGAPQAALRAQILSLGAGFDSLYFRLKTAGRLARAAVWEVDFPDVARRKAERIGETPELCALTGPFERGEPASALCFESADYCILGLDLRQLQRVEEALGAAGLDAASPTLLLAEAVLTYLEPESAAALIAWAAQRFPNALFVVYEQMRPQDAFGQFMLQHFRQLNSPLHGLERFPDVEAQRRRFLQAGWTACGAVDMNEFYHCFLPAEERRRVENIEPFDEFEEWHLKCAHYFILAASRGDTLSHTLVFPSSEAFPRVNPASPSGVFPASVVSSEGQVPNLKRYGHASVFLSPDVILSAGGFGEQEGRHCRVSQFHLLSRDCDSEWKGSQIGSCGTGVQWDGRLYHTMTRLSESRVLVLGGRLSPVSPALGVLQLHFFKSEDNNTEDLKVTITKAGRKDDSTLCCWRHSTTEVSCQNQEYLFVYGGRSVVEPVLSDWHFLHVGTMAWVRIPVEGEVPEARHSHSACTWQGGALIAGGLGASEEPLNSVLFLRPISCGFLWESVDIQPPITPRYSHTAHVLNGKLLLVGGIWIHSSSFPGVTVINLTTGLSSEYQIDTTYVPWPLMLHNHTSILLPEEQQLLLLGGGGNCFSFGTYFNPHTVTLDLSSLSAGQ
UniProt Q9NUP9: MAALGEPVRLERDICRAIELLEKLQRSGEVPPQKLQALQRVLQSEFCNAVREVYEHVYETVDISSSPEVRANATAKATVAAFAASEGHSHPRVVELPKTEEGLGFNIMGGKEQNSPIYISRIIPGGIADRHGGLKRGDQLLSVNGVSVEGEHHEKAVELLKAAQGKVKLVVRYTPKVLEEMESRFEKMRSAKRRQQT
UniProt Q6P1Q0: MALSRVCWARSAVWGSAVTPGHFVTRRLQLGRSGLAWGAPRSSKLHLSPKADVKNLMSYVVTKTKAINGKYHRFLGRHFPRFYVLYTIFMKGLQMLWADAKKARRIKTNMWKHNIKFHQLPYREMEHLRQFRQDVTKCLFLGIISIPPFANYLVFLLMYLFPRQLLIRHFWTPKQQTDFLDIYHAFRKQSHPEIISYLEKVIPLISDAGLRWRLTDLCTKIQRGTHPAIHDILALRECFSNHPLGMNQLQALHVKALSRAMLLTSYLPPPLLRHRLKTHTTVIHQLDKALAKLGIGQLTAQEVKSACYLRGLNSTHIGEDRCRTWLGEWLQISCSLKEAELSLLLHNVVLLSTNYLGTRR

The list shows a part of the results.

Compound in one experiment: CN1CCC(CNc2ccc3ncc(-c4cccc(OC(F)(F)F)c4)n3n2)CC1
Nature of the experiment: log2 fold change, soluble protein after heating vs DMSO (PISA); higher = thermal stabilisation; K562 cells, 10 uM, 30 min; active = over 0.2 and 3.5 SD of the protein, either way, in both replicates (recomputed). The method, boiled down:
(§1)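 Aliquots of K562 cells (2×10^6 cells/mL) treated with 10 μM compound for 30 min were heated for 3 min over 48°C-58°C. After pooling and extraction in PBS with 0.5% NP-40 at 4°C, soluble protein from a 21,000xg, 90 min spin was quantified by TMTpro 16plex LC-MS/MS with channel sums equalised. Thermal stability is expressed against control samples, from duplicates, as a log2 fold change.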
In the case of KYNU (UniProt Q16719), the log2 fold change is inactive: -0.058.

KTN1 (UniProt Q86UP2): the log2 fold change was inactive: -0.006.

Consider LPIN3 isoform 2 (UniProt Q9BQK8), for which the log2 fold change was active: -0.27.

Turning to LDHA isoform 3 (UniProt P00338), the log2 fold change was inactive: -0.009.

On to KYAT3 (UniProt Q6YP21), for which the log2 fold change is inactive: -0.015.

Take LASP1 (UniProt Q14847): the log2 fold change was inactive: 0.001.

As to LCLAT1 (UniProt Q6UWP7), the log2 fold change was inactive: 0.175.

LAMTOR4 (UniProt Q0VGL1): the log2 fold change was inactive: -0.083.

For the target LLPH (UniProt Q9BRT6), the log2 fold change is inactive: 0.547.

Turning to LMAN2 (UniProt Q12907), the log2 fold change is inactive: -0.021.

As to LPIN2 (UniProt Q92539), the log2 fold change is inactive: -0.058.

Consider LARP7 isoform 3 (UniProt Q4G0J3), for which the log2 fold change is inactive: -0.075.

In the case of LLGL2 (UniProt Q6P1M3), the log2 fold change is inactive: -0.051.

In the case of LARS (UniProt Q9P2J5), the log2 fold change is inactive: 0.031.

Regarding LAMTOR5 (UniProt O43504), the log2 fold change is inactive: 0.081.

Regarding LRRC59 (UniProt Q96AG4), the log2 fold change was inactive: 0.055.

Take LGALS1 (UniProt P09382): the log2 fold change was inactive: 0.138.

Take LIMK2 isoform 3 (UniProt P53671): the log2 fold change is inactive: -0.186.

As for LRRC20 (UniProt Q8TCA0), the log2 fold change is inactive: 0.052.

Consider LRRC57 (UniProt Q8N9N7), for which the log2 fold change was inactive: -0.031.

Turning to LANCL2 (UniProt Q9NS86), the log2 fold change is inactive: 0.027.

With LMNA (UniProt P02545), the log2 fold change was inactive: 0.

Turning to LMNB2 (UniProt Q03252), the log2 fold change was inactive: 0.014.

Turning to LRRC47 (UniProt Q8N1G4), the log2 fold change was inactive: 0.01.

Turning to LRPAP1 (UniProt P30533), the log2 fold change is inactive: 0.059.

Take LRIG2 (UniProt O94898): the log2 fold change was inactive: 0.035.

LCMT2 (UniProt O60294): the log2 fold change is inactive: -0.069.

Regarding LIN7C (UniProt Q9NUP9), the log2 fold change is inactive: -0.048.

Consider LETMD1 isoform 7 (UniProt Q6P1Q0), for which the log2 fold change was inactive: -0.111.

Regarding LRRC4B (UniProt Q9NT99), the log2 fold change was inactive: 0.231.

Compound in the next experiment: CN1CCN(CCOc2cc(OC3CCOCC3)c3c(Nc4c(Cl)ccc5c4OCO5)ncnc3c2)CC1 [saracatinib]
The description is as above. The method, boiled down:
as §1
On to KYNU (UniProt Q16719), for which the log2 fold change is inactive: 0.066.

With KTN1 (UniProt Q86UP2), the log2 fold change is inactive: 0.001.

For LPIN3 isoform 2 (UniProt Q9BQK8), the log2 fold change is inactive: -0.101.

In the case of LDHA isoform 3 (UniProt P00338), the log2 fold change was inactive: 0.032.

KYAT3 (UniProt Q6YP21): the log2 fold change was inactive: 0.026.

Regarding LASP1 (UniProt Q14847), the log2 fold change was inactive: 0.042.

Turning to LCLAT1 (UniProt Q6UWP7), the log2 fold change was inactive: 0.018.

As to LAMTOR4 (UniProt Q0VGL1), the log2 fold change is inactive: -0.084.

On to LLPH (UniProt Q9BRT6), for which the log2 fold change was inactive: -0.114.

For the target LMAN2 (UniProt Q12907), the log2 fold change was inactive: -0.004.

Regarding LPIN2 (UniProt Q92539), the log2 fold change was inactive: 0.033.

As for LARP7 isoform 3 (UniProt Q4G0J3), the log2 fold change was inactive: 0.015.

With LARS (UniProt Q9P2J5), the log2 fold change is inactive: -0.053.

Take LAMTOR5 (UniProt O43504): the log2 fold change was inactive: 0.017.

LRRC59 (UniProt Q96AG4): the log2 fold change was inactive: -0.054.

On to LGALS1 (UniProt P09382), for which the log2 fold change is inactive: 0.011.

LIMK2 isoform 3 (UniProt P53671): the log2 fold change was inactive: -0.12.

As for LIN7A (UniProt O14910), the log2 fold change was inactive: 0.013.

Take LRRC20 (UniProt Q8TCA0): the log2 fold change was inactive: 0.05.

For LRRC57 (UniProt Q8N9N7), the log2 fold change is inactive: -0.028.

Turning to LANCL2 (UniProt Q9NS86), the log2 fold change was inactive: 0.052.

For LMNA (UniProt P02545), the log2 fold change is inactive: 0.041.

Take LMNB2 (UniProt Q03252): the log2 fold change was inactive: -0.031.

Take LRRC47 (UniProt Q8N1G4): the log2 fold change is inactive: 0.043.

As for L1RE1 (UniProt Q9UN81), the log2 fold change was inactive: 0.118.

On to LRPAP1 (UniProt P30533), for which the log2 fold change was inactive: 0.014.

With LRIG2 (UniProt O94898), the log2 fold change was inactive: -0.02.

On to LCMT2 (UniProt O60294), for which the log2 fold change was inactive: 0.127.

As for LIN7C (UniProt Q9NUP9), the log2 fold change was inactive: 0.039.

Take LETMD1 isoform 7 (UniProt Q6P1Q0): the log2 fold change was inactive: 0.053.

In the case of LRRC4B (UniProt Q9NT99), the log2 fold change is inactive: 0.06.

Compound in a further experiment: CN1CCN(c2nc(C3=C(c4c[nH]c5ccccc45)C(=O)NC3=O)c3ccccc3n2)CC1 [sotrastaurin]
Described as above. The method, boiled down:
as §1
As to KYNU (UniProt Q16719), the log2 fold change is inactive: 0.01.

For the target KTN1 (UniProt Q86UP2), the log2 fold change is inactive: -0.07.

For the target LPIN3 isoform 2 (UniProt Q9BQK8), the log2 fold change is inactive: 0.171.

On to LDHA isoform 3 (UniProt P00338), for which the log2 fold change is inactive: 0.042.

Turning to KYAT3 (UniProt Q6YP21), the log2 fold change is inactive: 0.053.

LASP1 (UniProt Q14847): the log2 fold change was inactive: 0.025.

For LCLAT1 (UniProt Q6UWP7), the log2 fold change is inactive: 0.016.

LAMTOR4 (UniProt Q0VGL1): the log2 fold change is inactive: -0.082.

As to LLPH (UniProt Q9BRT6), the log2 fold change is inactive: -0.025.

On to LMAN2 (UniProt Q12907), for which the log2 fold change was inactive: 0.008.

As to LPIN2 (UniProt Q92539), the log2 fold change is inactive: -0.005.

Consider LARP7 isoform 3 (UniProt Q4G0J3), for which the log2 fold change is inactive: -0.076.

Regarding LARS (UniProt Q9P2J5), the log2 fold change was inactive: -0.1.

LAMTOR5 (UniProt O43504): the log2 fold change is inactive: -0.097.

For LRRC59 (UniProt Q96AG4), the log2 fold change was inactive: 0.042.

Take LGALS1 (UniProt P09382): the log2 fold change was inactive: -0.031.

As for LIMK2 isoform 3 (UniProt P53671), the log2 fold change was inactive: 0.055.

With LIN7A (UniProt O14910), the log2 fold change is inactive: 0.092.

As for LRRC20 (UniProt Q8TCA0), the log2 fold change was inactive: -0.071.

LRRC57 (UniProt Q8N9N7): the log2 fold change was inactive: 0.002.

As for LANCL2 (UniProt Q9NS86), the log2 fold change was inactive: 0.032.

In the case of LMNA (UniProt P02545), the log2 fold change is inactive: -0.083.

In the case of LMNB2 (UniProt Q03252), the log2 fold change was inactive: -0.127.

Regarding LRRC47 (UniProt Q8N1G4), the log2 fold change is inactive: -0.014.

For L1RE1 (UniProt Q9UN81), the log2 fold change is inactive: 0.012.

With LRPAP1 (UniProt P30533), the log2 fold change is inactive: 0.061.

LRIG2 (UniProt O94898): the log2 fold change is inactive: 0.027.

Turning to LCMT2 (UniProt O60294), the log2 fold change was inactive: 0.04.

For the target LIN7C (UniProt Q9NUP9), the log2 fold change was inactive: -0.018.

Regarding LETMD1 isoform 7 (UniProt Q6P1Q0), the log2 fold change was inactive: 0.018.

In the case of LRRC4B (UniProt Q9NT99), the log2 fold change was inactive: 0.02.
